Measured values reported in PMC7819943, “Rice protein-binding microarrays: a tool to detect cis-acting elements near promoter regions in rice”.
Some of the results follow.

Sequences of proteins named here, by UniProt entry; tags and fusion partners are left off.
UniProt Q0JBA9, entry or part of it: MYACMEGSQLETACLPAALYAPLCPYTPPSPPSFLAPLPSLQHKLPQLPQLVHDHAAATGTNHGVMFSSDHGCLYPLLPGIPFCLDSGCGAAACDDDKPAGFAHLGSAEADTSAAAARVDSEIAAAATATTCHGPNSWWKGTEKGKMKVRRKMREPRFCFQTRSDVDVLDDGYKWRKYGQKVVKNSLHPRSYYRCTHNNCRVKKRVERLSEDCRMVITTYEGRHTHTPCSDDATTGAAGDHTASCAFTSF

molecular target: OsWRKY34 (Oryza sativa, UniProt Q0JBA9 1-250); assay: protein-binding microarray (RPBM); PBS, 2% BSA, 51.3 ng/ul salmon testes DNA, 50 uM zinc acetate, 200 nM TF, 25 C, 1 h; high values mean tight binding; conditions: protein: recombinant; tags: N-terminal polyhistidine and DsRed monomer fusion (pET32a); label: CyDye5-dUTP incorporated in the synthesized complementary strand; 3' TTTTT single-stranded linker to array surface; dsDNA, one strand shown
Procedure, shortened: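 An Axon 4000B scanner gave the binding signal as per-feature fluorescence intensity in arbitrary units. This followed washing of a custom Agilent array that had been incubated for 1 h at 25 °C with 200 nM protein in PBS, 2% BSA, salmon testes DNA and 50 µM zinc acetate. The proteins were transcription factors fused at the N-terminus to polyhistidine and DsRed, expressed in E. coli BL21-CodonPlus and purified on Ni–NTA.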

Sequence	binding signal
AGTTTCAGCAGTTGTCAAATTTAAGATTCACATGATGTGTCGGAGTCACCTAGTGCAG	8600 fluorescence intensity (a.u.)
GCTTTTCTTTGCTAGTGGGCTATCTCTTGCTCCAAACTTCCGGAGTCACCTAGTGCAG	8120 fluorescence intensity (a.u.)
ATATATTAATGTGCAATCTTTTTACGTGTTCGCGAAAAAACGGAGTCACCTAGTGCAG	9610 fluorescence intensity (a.u.)
CGCATGCCCGATCGTTTTTCTGTGCGACGCGCGGTCACCGCGGAGTCACCTAGTGCAG	10600 fluorescence intensity (a.u.)
TAGCCTATTTCTTATACCATATCTCTATCCCGTGAAATTCCGGAGTCACCTAGTGCAG	10100 fluorescence intensity (a.u.)
CTATATACGTATTTGCCTCGAGCATCTACGCGCGTATATACGGAGTCACCTAGTGCAG	11600 fluorescence intensity (a.u.)
TAGCACATGTTTGACCGTTCGTCTTATTCAAATTTTTTTTCGGAGTCACCTAGTGCAG	13000 fluorescence intensity (a.u.)
TTTTTTAGGCTCCTTATTGTCATTATCACTTAGCATCATTCGGAGTCACCTAGTGCAG	8120 fluorescence intensity (a.u.)
TTGGGGCGCTTTTTTTCTTTTGGGTTCTCTTTGACAGGACCGGAGTCACCTAGTGCAG	12000 fluorescence intensity (a.u.)
CACCGCCGAAAGAGGAGGAGGGGAGGGGAGGGCCGACGGGCGGAGTCACCTAGTGCAG	11200 fluorescence intensity (a.u.)
GAGGAGGTAGGTATGCTTTAATATCCACTGCTGTTTCTTTCGGAGTCACCTAGTGCAG	9170 fluorescence intensity (a.u.)
ACACCCGCCGCCACGTCACTCCACGCCGCACCCACCCACTCGGAGTCACCTAGTGCAG	10400 fluorescence intensity (a.u.)
AAAATAACTTACGGGGTGGAATGTCAAACTTCAAGTGACTCGGAGTCACCTAGTGCAG	8470 fluorescence intensity (a.u.)
CCACCTAAAAGCCCACCACATCCATCCATCTTGCTTGCCACGGAGTCACCTAGTGCAG	8390 fluorescence intensity (a.u.)
TTACTATTTAGCGCATATTTATTCATAGCATGCACCTTTTCGGAGTCACCTAGTGCAG	8820 fluorescence intensity (a.u.)
CCATCCGTCTCCATCCAACACCTCCCCGTGCTCGCACCCACGGAGTCACCTAGTGCAG	10500 fluorescence intensity (a.u.)
AATCAGTTGGGCGGGTGGGGTGCCTTCCAGCCAGATGCCCCGGAGTCACCTAGTGCAG	8080 fluorescence intensity (a.u.)
AGGTTATTAATTCACATATCCTAAGGTTGTGTTTAGTTCACGGAGTCACCTAGTGCAG	8200 fluorescence intensity (a.u.)
CTTATCCTTTTCATTTTCATTTTCGCTGAATTTCTGTACACGGAGTCACCTAGTGCAG	10700 fluorescence intensity (a.u.)
GGTTTAATCTGTTTGTCGTACTGCCATCATAAAGCCTAAGCGGAGTCACCTAGTGCAG	10600 fluorescence intensity (a.u.)
AATTTACTTTTGTCTCGTGTTATCCTTTTGTTTTGTTTTACGGAGTCACCTAGTGCAG	12200 fluorescence intensity (a.u.)

Some of the entries so far, with bars between the fields:
Sequence | binding signal
ACACCCGCCGCCACGTCACTCCACGCCGCACCCACCCACTCGGAGTCACCTAGTGCAG | 10400 fluorescence intensity (a.u.)
AAAATAACTTACGGGGTGGAATGTCAAACTTCAAGTGACTCGGAGTCACCTAGTGCAG | 8470 fluorescence intensity (a.u.)
CCACCTAAAAGCCCACCACATCCATCCATCTTGCTTGCCACGGAGTCACCTAGTGCAG | 8390 fluorescence intensity (a.u.)

(list continues)

Sequence	binding signal
CTCAGCTCCACCGTTTCATTTCGTTTTTTTTTTCTCTCATCGGAGTCACCTAGTGCAG	13900 fluorescence intensity (a.u.)
TTTTTTTTTCTTAAATTCCTCCTGATCTCGTTCGGAACTTCGGAGTCACCTAGTGCAG	9970 fluorescence intensity (a.u.)
CTCTCCTCCACGCCCACCTCACCTGCCCCTGCGCCTCCGCCGGAGTCACCTAGTGCAG	8610 fluorescence intensity (a.u.)
TCTACAGCCTCTACACTCCGTCCTGCACCGCCGCGCTCAACGGAGTCACCTAGTGCAG	9240 fluorescence intensity (a.u.)
GTCGCTGGTCCTATGGTCCAATTGTATTTTCAGACAGTCCCGGAGTCACCTAGTGCAG	9940 fluorescence intensity (a.u.)
CCACGCCTCCACCTCCGCCTCATTTGCTCCAGTTCCCGGACGGAGTCACCTAGTGCAG	9630 fluorescence intensity (a.u.)
AAACTGAAGATGTTTTTGTCGGTATTTGAGTATGTCATCCCGGAGTCACCTAGTGCAG	8120 fluorescence intensity (a.u.)
ATCGCCTCCACCACCACGGTTCGGCTCGGCTCGGCTACTCCGGAGTCACCTAGTGCAG	8110 fluorescence intensity (a.u.)
CTAAAAACTTGCTATATTGTTAACACTACTTGTTGTAAGTCGGAGTCACCTAGTGCAG	8290 fluorescence intensity (a.u.)
TTTCCTCCTGGCCTTTCTTGGCCTCTGCATTTGCTCACCTCGGAGTCACCTAGTGCAG	12000 fluorescence intensity (a.u.)
CCACTTTGGCTATTCACCCTTTATTTATGTATAAAAAATACGGAGTCACCTAGTGCAG	8120 fluorescence intensity (a.u.)
TCTATTTCGTCTCCGTCCTCTTTGGGCTGTGACATGTATACGGAGTCACCTAGTGCAG	8250 fluorescence intensity (a.u.)
ACTTTACTACCAAATGTTAACTCGTGTTTTTTTGCCCATACGGAGTCACCTAGTGCAG	8110 fluorescence intensity (a.u.)
TACTCTAACCCTCATCTCCTCTTTGCATTTCCGCCTCGTCCGGAGTCACCTAGTGCAG	9230 fluorescence intensity (a.u.)
TGGTTGTTGTTATTATTGACTTGGTGTTGAATACCTTTCACGGAGTCACCTAGTGCAG	8880 fluorescence intensity (a.u.)
TACCGTACTCCTATCTTTTTGAAACAGCCTCTTTTTTTGACGGAGTCACCTAGTGCAG	8340 fluorescence intensity (a.u.)
TAAGACGAGTGGTCAAACGTTGGTTAAAAAGTCAACGGTGCGGAGTCACCTAGTGCAG	14800 fluorescence intensity (a.u.)
ACCTTAACTCGAAACCGATCTCGTTTACCACCTATCCAACCGGAGTCACCTAGTGCAG	8860 fluorescence intensity (a.u.)
CGGGGTTGTCTTCACCTGCGACGCGGTGGTGCACGGTGGGCGGAGTCACCTAGTGCAG	8990 fluorescence intensity (a.u.)
CTCGATCAGTTTGTTTCTCTTCCCTTAAATACCAATTAAACGGAGTCACCTAGTGCAG	8490 fluorescence intensity (a.u.)
TCACCGTCTCCCGCGACTACCGCGACATCCTCGCCTGCGGCGGAGTCACCTAGTGCAG	10400 fluorescence intensity (a.u.)

Sequence	binding signal
GCCGTTGACTTTTTATTACATGTTTGACCGTTCGTCTTATCGGAGTCACCTAGTGCAG	62900 fluorescence intensity (a.u.)
CGCCTCAATCACCAAATCGATTTCACATCATTCGTCTCTTCGGAGTCACCTAGTGCAG	12100 fluorescence intensity (a.u.)
ACGGTAGGGGCATGGAAGGGATCAAATTGAAATTTCAGGGCGGAGTCACCTAGTGCAG	8580 fluorescence intensity (a.u.)
TAGATATTTTCTATAATGTTTTATAACTATATTTTGATGTCGGAGTCACCTAGTGCAG	8150 fluorescence intensity (a.u.)
TCTTTTGATTTGGTATTCAGTTCCTCTTTCTTTCCGTTGTCGGAGTCACCTAGTGCAG	12200 fluorescence intensity (a.u.)
ACTAGATCCATCATGGCTACTTTTTGACGTTGTTACTGCGCGGAGTCACCTAGTGCAG	9210 fluorescence intensity (a.u.)
CAAAGCATCACACACACACACACACCAAACTAATCAATTTCGGAGTCACCTAGTGCAG	8340 fluorescence intensity (a.u.)
GAATCTGCCTCCGAAATTCATCGGCTCGATCTGTTTTAACCGGAGTCACCTAGTGCAG	10900 fluorescence intensity (a.u.)
TGGATTTGGCGGCGGCGGCGGCTTCGAGGGGAGGGGCTCTCGGAGTCACCTAGTGCAG	15300 fluorescence intensity (a.u.)
TGTCATGCCAGGTTCTATCACATTGTCTAGTTTGCTTCCTCGGAGTCACCTAGTGCAG	10900 fluorescence intensity (a.u.)
ATTGTTGTTGTTGTGTATTAATCTCGCGCTTCTGCTATTACGGAGTCACCTAGTGCAG	15500 fluorescence intensity (a.u.)
AGTCTTGGGTGTAAACCTATCCACCAATTTTCGAATTTAGCGGAGTCACCTAGTGCAG	8220 fluorescence intensity (a.u.)
GGCGGCGGTGATTCGGGGATGCGGCGCGGCGGGGAGGAGGCGGAGTCACCTAGTGCAG	10100 fluorescence intensity (a.u.)
GCCGTGCCGCCACGTTCCACGCCAACCTCGCCGGCCGCGCCGGAGTCACCTAGTGCAG	10100 fluorescence intensity (a.u.)
GCTAGTTAATTTGCTCGCGCGAGCTAGGACCCTCCGTGGTCGGAGTCACCTAGTGCAG	8480 fluorescence intensity (a.u.)
TCCACCCCGGCCCGCGCCCGCGCCCTCTCGAGTTCCCACACGGAGTCACCTAGTGCAG	10900 fluorescence intensity (a.u.)
GATGTGTTACGTCGTATGCTGTGGTTGACCGATGGCCCTGCGGAGTCACCTAGTGCAG	10100 fluorescence intensity (a.u.)
ATTTCCTTAACGTATGCCGAACACATCCATATACGCGTGACGGAGTCACCTAGTGCAG	9220 fluorescence intensity (a.u.)
GATCTTGTGCACCTTACAAATTACATTGCCGACCATAAAACGGAGTCACCTAGTGCAG	9320 fluorescence intensity (a.u.)
AGATCCCGTGTTTAATCCCCAGCACGTTCACGGTTTCTCGCGGAGTCACCTAGTGCAG	11700 fluorescence intensity (a.u.)
TTCTCCTCTTCTCGCGCGGCTCGTTATATTCTCGTCATCACGGAGTCACCTAGTGCAG	12000 fluorescence intensity (a.u.)

Sequence	binding signal
CCTCTCAGCTCCGCCGCCGCTGCCTCCTCCTCCTCCGTTCCGGAGTCACCTAGTGCAG	9070 fluorescence intensity (a.u.)
GTTCTAACCATTCATTCCCTCTTTTCTATTTAATCCTAACCGGAGTCACCTAGTGCAG	9230 fluorescence intensity (a.u.)
GATGCATACCAAAAATTTTCATGCTTTACCGTCTGACAACCGGAGTCACCTAGTGCAG	8220 fluorescence intensity (a.u.)
TCTGGACTTCCACGTCACGTCCACAATTCCCATTTCACACCGGAGTCACCTAGTGCAG	11700 fluorescence intensity (a.u.)
AGTGTTCTAGACTTACGGGTTACGGTTTTTTTTGTTAGAGCGGAGTCACCTAGTGCAG	8090 fluorescence intensity (a.u.)
TAATGGCCTCTTCTTCTTCTTCTTCTTCTAGGTTCTCTGACGGAGTCACCTAGTGCAG	8700 fluorescence intensity (a.u.)
TTTATGTACGGTGATATGTGTACGTTTGCTTCTTTCCTGTCGGAGTCACCTAGTGCAG	10500 fluorescence intensity (a.u.)
CTCCTAACGCCATCCAATCTCTCTTCTCCCCGTCTCTTTCCGGAGTCACCTAGTGCAG	9930 fluorescence intensity (a.u.)
TGATGGAGCAGATCATTTCTTTGTTGTTCCACATGATTTTCGGAGTCACCTAGTGCAG	10000 fluorescence intensity (a.u.)
CCTTCCGTCGCAGCCAGCATTCTTCTCCTCTCTCCTCTCACGGAGTCACCTAGTGCAG	8220 fluorescence intensity (a.u.)
AATTCCTGCATTACTCGTGTTTTTTTCAAATGTCTTTTAACGGAGTCACCTAGTGCAG	11700 fluorescence intensity (a.u.)
CTGACTGTACTTTTCCCTTAAGATTGGTCAAATTTGAGTCCGGAGTCACCTAGTGCAG	10900 fluorescence intensity (a.u.)
TGTTGTGTGGTGTGAACGAGTCAGTCAATGCAGTCAACATCGGAGTCACCTAGTGCAG	9410 fluorescence intensity (a.u.)
TTTATTCCGAATTATAACTGGTTTATTGAGCAAGCGCTTTCGGAGTCACCTAGTGCAG	11300 fluorescence intensity (a.u.)
ATAAGACGAACGGTTAAAAATGTGCCAAAAAGTCAACGGCCGGAGTCACCTAGTGCAG	9640 fluorescence intensity (a.u.)
TGTCTAGCTTACCTTGCTGCTGATTGCATGTCTAAAATGTCGGAGTCACCTAGTGCAG	9310 fluorescence intensity (a.u.)
GCCGGAGAAGGGGAAGGGGCTCTCTCTGGCGTGGGGCGTGCGGAGTCACCTAGTGCAG	11100 fluorescence intensity (a.u.)
CAATTCATTATGCATATTGTCGCACATTGTTGTTTTAGTCCGGAGTCACCTAGTGCAG	13000 fluorescence intensity (a.u.)
AGCTTATTTTTACCCGATGTACTTGCATGCTTAATTGATTCGGAGTCACCTAGTGCAG	11300 fluorescence intensity (a.u.)
TTTATCGCTTTGACTGTTCTACATCTTGCCTCGCCGTGCACGGAGTCACCTAGTGCAG	9040 fluorescence intensity (a.u.)
CGTTTCTCGTCGCGTCACGCTATCACCCTTGACATCATCACGGAGTCACCTAGTGCAG	14500 fluorescence intensity (a.u.)
